Results taken from PMC12395676.
No constants are given. Whether binding was seen depends on the method and setting. In cells and extracts the contact can be indirect. Some binding calls cover weakened binding; strength is not graded here.

Chains of the proteins cited; added tags and fusions are not shown.
UniProt Q15796: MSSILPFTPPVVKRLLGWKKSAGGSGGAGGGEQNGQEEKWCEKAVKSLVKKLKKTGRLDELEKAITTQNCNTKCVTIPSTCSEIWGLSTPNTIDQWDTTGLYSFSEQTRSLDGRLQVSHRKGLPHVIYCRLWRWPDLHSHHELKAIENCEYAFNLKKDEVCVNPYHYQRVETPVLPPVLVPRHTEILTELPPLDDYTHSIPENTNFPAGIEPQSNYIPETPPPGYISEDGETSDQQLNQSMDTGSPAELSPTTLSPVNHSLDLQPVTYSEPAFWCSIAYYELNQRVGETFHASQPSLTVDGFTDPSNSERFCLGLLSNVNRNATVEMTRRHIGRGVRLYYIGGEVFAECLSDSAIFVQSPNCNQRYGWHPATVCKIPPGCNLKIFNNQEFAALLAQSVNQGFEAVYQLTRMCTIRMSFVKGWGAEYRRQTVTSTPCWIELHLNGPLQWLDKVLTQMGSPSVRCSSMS
UniProt P31271: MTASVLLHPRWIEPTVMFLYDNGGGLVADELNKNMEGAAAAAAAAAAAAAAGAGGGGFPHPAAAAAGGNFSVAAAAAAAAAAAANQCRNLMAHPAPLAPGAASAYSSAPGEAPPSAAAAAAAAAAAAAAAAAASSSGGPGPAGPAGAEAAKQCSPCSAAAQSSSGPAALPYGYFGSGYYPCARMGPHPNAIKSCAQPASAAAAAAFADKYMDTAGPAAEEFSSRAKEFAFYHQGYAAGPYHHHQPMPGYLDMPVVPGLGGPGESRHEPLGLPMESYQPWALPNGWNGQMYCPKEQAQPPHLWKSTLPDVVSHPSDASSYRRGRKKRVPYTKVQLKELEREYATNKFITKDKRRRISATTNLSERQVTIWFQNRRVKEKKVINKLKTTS

Target: smad2 (UniProt Q15796)
Assay: co-IP; CO-IP kit (Abison Biotechnology); proteins mixed with MG-132 (10 µM), incubated with primary antibodies, then protein A/G plus-agarose beads; complexes examined by western blot; sample and precipitating antibody not stated

binding: binds
Substance: Homeobox A13 (HOXA13) (from UniProt P31271 1-388)
